This is an account of results in article PMC8368002, “Crystal structure of the INTS3/INTS6 complex reveals the functional importance of INTS3 dimerization in DSB repair” (Cell Discovery, 2020).

In data set [1] the test system is INTS3(1-995) del791-831 + hSSB1. Kind of data set: EMSA. The conditions noted are these: 1 mM MgCl2, reduced vs INTS3(1-995)/hSSB1; EMSA: 50 mM NaCl, 20 mM HEPES pH 7.5, 1 mM MgCl2, 0.5 mM EDTA, 0.2 mM DTT, on ice 1 h; recombinant protein; single-stranded DNA.
For data set [2], the system named is INTS3(1-995) del832-872 + hSSB1. Kind of data set: EMSA. The conditions noted are these: 1 mM MgCl2, reduced vs INTS3(1-995)/hSSB1; EMSA: 50 mM NaCl, 20 mM HEPES pH 7.5, 1 mM MgCl2, 0.5 mM EDTA, 0.2 mM DTT, on ice 1 h; recombinant protein; single-stranded DNA.

The comparison behind a weaker result is the experiment's own reference, which may not be listed here.

Turning to “TTTTTTTTTTTTTTTTTTTTTTTTTTTTTTTTTTTTTTTTTTTTTTTT [dT48 (FAM)]”, the binding result in data set [1] and in data set [2] was “binds more weakly” throughout.
